The text below walks through data of PMC7819943, “Rice protein-binding microarrays: a tool to detect cis-acting elements near promoter regions in rice”.

This is one part of the list.

The assay has as its target T1, OsSMF1 (Oryza sativa, UniProt Q6ZLB0 1-436).
T1 sequence: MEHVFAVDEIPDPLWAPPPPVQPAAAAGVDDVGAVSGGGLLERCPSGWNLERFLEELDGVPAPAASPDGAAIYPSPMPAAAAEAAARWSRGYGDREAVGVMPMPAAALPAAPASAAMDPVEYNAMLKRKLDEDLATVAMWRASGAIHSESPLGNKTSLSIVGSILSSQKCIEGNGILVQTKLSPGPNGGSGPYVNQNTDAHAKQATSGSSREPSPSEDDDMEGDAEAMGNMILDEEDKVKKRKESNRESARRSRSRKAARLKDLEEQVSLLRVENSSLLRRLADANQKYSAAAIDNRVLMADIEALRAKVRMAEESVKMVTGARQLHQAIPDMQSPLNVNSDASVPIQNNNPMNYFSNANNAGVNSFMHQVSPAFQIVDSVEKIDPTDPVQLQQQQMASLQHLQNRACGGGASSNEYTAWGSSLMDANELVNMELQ
As to the kind of experiment: protein-binding microarray (RPBM); PBS, 2% BSA, 51.3 ng/ul salmon testes DNA, 50 uM zinc acetate, 200 nM TF, 25 C, 1 h; high values mean tight binding. To be noted: protein: recombinant; tags: N-terminal polyhistidine and DsRed monomer fusion (pET32a); chain copies: 2; label: CyDye5-dUTP incorporated in the synthesized complementary strand; 3' TTTTT single-stranded linker to array surface; dsDNA, one strand shown. In outline: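 Ni–NTA purification followed expression in E. coli BL21-CodonPlus of transcription factors fused N-terminally to a polyhistidine tag and DsRed. At 200 nM in PBS with 2% BSA, salmon testes DNA and 50 µM zinc acetate, the protein was incubated for 1 h at 25 °C with a custom Agilent array that had been primer-extended with Cy5-dUTP and blocked with 2% BSA. After washing, the array was read on an Axon 4000B scanner. The binding signal is per-feature fluorescence intensity in arbitrary units.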
As to “TCTTTATAAAACCAGCGGAAAGGGATAACCATACGCCGCGCGGAGTCACCTAGTGCAG”, the binding signal was 35500 fluorescence intensity (a.u.).

Regarding “CCCAGAAATGCTGGGCCGGTGCTTCGCCTGCCGCTCCGGCCGGAGTCACCTAGTGCAG”, the binding signal is 13000 fluorescence intensity (a.u.).

Regarding “AGATTTAAGAGGACGTCACGGGCCCAATCAGGCATGCGAACGGAGTCACCTAGTGCAG”, the binding signal is 5470 fluorescence intensity (a.u.).

For the sequence “TGTGTTCCCTTTCGGTACGTTGTATTTCGACCCTGACGTTCGGAGTCACCTAGTGCAG”, the binding signal is 42700 fluorescence intensity (a.u.).

Regarding “CCCCAGGATCGGTGTCCCCACACGTCAGCGATAAGTGAGGCGGAGTCACCTAGTGCAG”, the binding signal was 8620 fluorescence intensity (a.u.).

“CGCTGAGCCAGCTGCGACCGCCGACGTCGTCTGCGCCATCCGGAGTCACCTAGTGCAG”: the binding signal is 37500 fluorescence intensity (a.u.).

As to “CTGAAAACCGGACGCTTTGCTGCGTTAGCATCGCCATTATCGGAGTCACCTAGTGCAG”, the binding signal was 3440 fluorescence intensity (a.u.).

Take “CACTATACCAAATTACCAATAGTTTCACACCTCATCACTGCGGAGTCACCTAGTGCAG”: the binding signal was 3240 fluorescence intensity (a.u.).

Regarding “ATCCCTCGACAATGATGTGTCCATAGTGTCTTCATTAATACGGAGTCACCTAGTGCAG”, the binding signal is 3560 fluorescence intensity (a.u.).

With “CTGAACTTTCCTTTCTTTTCATGAGTCGCCACGGTTTCGTCGGAGTCACCTAGTGCAG”, the binding signal is 3490 fluorescence intensity (a.u.).

With “ATGTTCATATGAGGATCCACACGTCAATCCACGTCTCTTCCGGAGTCACCTAGTGCAG”, the binding signal is 6930 fluorescence intensity (a.u.).

Turning to “GGTAGGTTATGCATATGAAAACTATTTGAAATCTTCCACACGGAGTCACCTAGTGCAG”, the binding signal is 28000 fluorescence intensity (a.u.).

Turning to “AGCCTCCTCAAGTTGAATGCCACGTATTGCACTGTGAAAGCGGAGTCACCTAGTGCAG”, the binding signal is 38800 fluorescence intensity (a.u.).

In the case of “GCCGCATCGGCCCTCGGCGCATTGCAGTTCATGACGGCGGCGGAGTCACCTAGTGCAG”, the binding signal is 4020 fluorescence intensity (a.u.).

Take “AATAAATCTAAACAATGATATATCCAGATTTGTTATAGTACGGAGTCACCTAGTGCAG”: the binding signal is 28300 fluorescence intensity (a.u.).

Regarding “ATTACTTGAGTCAGATCCAGAAGCATCCATCCATCCATCACGGAGTCACCTAGTGCAG”, the binding signal was 4660 fluorescence intensity (a.u.).

Consider “GTCGCTTTTATAAATACCTCAAACTTGGCGTACGACGCATCGGAGTCACCTAGTGCAG”, for which the binding signal is 3210 fluorescence intensity (a.u.).

As to “GGGAGGGAAAGGTGGGAGGTATTTTCCTGTGTGGTCCACTCGGAGTCACCTAGTGCAG”, the binding signal was 4480 fluorescence intensity (a.u.).

“GACATGATGCACAGATCTACCTGGGTGGGTGACCACTCATCGGAGTCACCTAGTGCAG”: the binding signal was 3190 fluorescence intensity (a.u.).

With “CATGTCTATCGATGTCATAATATGTTAATTATGCCTAGATCGGAGTCACCTAGTGCAG”, the binding signal is 3810 fluorescence intensity (a.u.).

In the case of “ACAGCAGCCGCGGCTACTATAATGGTGGGAGAGACAAACTCGGAGTCACCTAGTGCAG”, the binding signal is 4290 fluorescence intensity (a.u.).

Consider “CTGGGTTCCATGGTCACTGCCAGGTGGGGCCCAGATTCTGCGGAGTCACCTAGTGCAG”, for which the binding signal was 3140 fluorescence intensity (a.u.).

Turning to “GGACAGCGTCACTCCTGTTGCTAGCTAAGGACGTGGATGCCGGAGTCACCTAGTGCAG”, the binding signal is 32800 fluorescence intensity (a.u.).

On to “GCCTCCTGCCGTGCTTGTCCACCGGCGCCGACGACGACGACGGAGTCACCTAGTGCAG”, for which the binding signal was 33700 fluorescence intensity (a.u.).

As to “GACCAAAATATCCCGCTGTCTCAGCAACGTCACGCGGCGCCGGAGTCACCTAGTGCAG”, the binding signal was 3480 fluorescence intensity (a.u.).

As to “AACGCACATTCAGCGCCACGCTATTTGGTGCTGAGGTGTCCGGAGTCACCTAGTGCAG”, the binding signal is 8500 fluorescence intensity (a.u.).

With “TGCGTGTTCTCTCTGTCACTAACTCACTGGAACAGATCCACGGAGTCACCTAGTGCAG”, the binding signal is 3940 fluorescence intensity (a.u.).

Regarding “CCGATCTCCACCACCACCACCACCACGCGGGCGCGCGCACCGGAGTCACCTAGTGCAG”, the binding signal was 4580 fluorescence intensity (a.u.).

Consider “AAGCTCGTCCGCCACCGCGTCATCTCACAGGTTTACTATACGGAGTCACCTAGTGCAG”, for which the binding signal was 3370 fluorescence intensity (a.u.).

Take “CCTTCTCTCTCGCACCCGCAAAAGCTCAAACCCCTACACTCGGAGTCACCTAGTGCAG”: the binding signal is 3220 fluorescence intensity (a.u.).

“AGAAACCGTGGGTACTAGTTATTAAAATTCTTCCGTTGCACGGAGTCACCTAGTGCAG”: the binding signal was 15000 fluorescence intensity (a.u.).

“CCGCCGCCGCGTGCGCTGGCCACGCCGCCTCCGGCGACCTCGGAGTCACCTAGTGCAG”: the binding signal is 3970 fluorescence intensity (a.u.).

For “AAACTATATTCATCAGTGGTACCCACAAATATTAGACACTCGGAGTCACCTAGTGCAG”, the binding signal is 31600 fluorescence intensity (a.u.).

“TATCCCACACATCCTAGTAAGTAAATCAATTTAGTTATATCGGAGTCACCTAGTGCAG”: the binding signal was 3440 fluorescence intensity (a.u.).

On to “GGAGTAGTTTGGTTGGTTCGTTAAGGGACAGAGGGAGCTGCGGAGTCACCTAGTGCAG”, for which the binding signal is 3300 fluorescence intensity (a.u.).

Consider “GCTTAGATGTTTGATGTTTCGTTACATAAGATATAGTGGGCGGAGTCACCTAGTGCAG”, for which the binding signal was 3630 fluorescence intensity (a.u.).

In the case of “ATGCTTGTTTTGTTCGGTGTTCTTATAGAATGTGTAAAACCGGAGTCACCTAGTGCAG”, the binding signal was 16600 fluorescence intensity (a.u.).

With “ACCCGTGCTGACTCAACTTGTTGACCAGAAACCACCCCACCGGAGTCACCTAGTGCAG”, the binding signal is 8820 fluorescence intensity (a.u.).

With “ACCCTCCACGTGGCGCCATGCGATTCCAGCGTTAGACCCCCGGAGTCACCTAGTGCAG”, the binding signal is 17500 fluorescence intensity (a.u.).

On to “AAATTCGTTCTACAACTAAACAGGTTGCTTCAGAGTGCAACGGAGTCACCTAGTGCAG”, for which the binding signal was 30800 fluorescence intensity (a.u.).

Take “ATTTTAGTGCAATCAGTGACGTGTTGCTGGTGAGGATGTGCGGAGTCACCTAGTGCAG”: the binding signal was 3560 fluorescence intensity (a.u.).

For the sequence “CACGCCCGCCGCGCGGCCCACCTCCGCCTTTATGACCGATCGGAGTCACCTAGTGCAG”, the binding signal is 3250 fluorescence intensity (a.u.).
